Results taken from the supplement of paper PMC12067093, “Discovery and optimisation of a covalent ligand for TRIM25 and its application to targeted protein ubiquitination” (Chemical Science, 2025).
The list shows a part of the results.

Amino acid sequences for entries named in this document (tags omitted). A change or cut given only in a name is not applied to a line headed by its entry.
UniProt P22830: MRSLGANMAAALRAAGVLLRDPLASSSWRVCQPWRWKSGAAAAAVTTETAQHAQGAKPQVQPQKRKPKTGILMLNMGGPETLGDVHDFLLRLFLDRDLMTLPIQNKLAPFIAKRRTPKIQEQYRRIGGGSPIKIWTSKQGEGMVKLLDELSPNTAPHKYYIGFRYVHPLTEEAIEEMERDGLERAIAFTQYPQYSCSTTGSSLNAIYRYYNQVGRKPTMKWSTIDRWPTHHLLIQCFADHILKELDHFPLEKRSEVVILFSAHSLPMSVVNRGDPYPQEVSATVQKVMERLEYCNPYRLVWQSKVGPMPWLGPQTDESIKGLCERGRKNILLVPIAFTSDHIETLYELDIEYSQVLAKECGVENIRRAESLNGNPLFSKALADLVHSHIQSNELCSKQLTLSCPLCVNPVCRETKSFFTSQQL
UniProt Q658Y4: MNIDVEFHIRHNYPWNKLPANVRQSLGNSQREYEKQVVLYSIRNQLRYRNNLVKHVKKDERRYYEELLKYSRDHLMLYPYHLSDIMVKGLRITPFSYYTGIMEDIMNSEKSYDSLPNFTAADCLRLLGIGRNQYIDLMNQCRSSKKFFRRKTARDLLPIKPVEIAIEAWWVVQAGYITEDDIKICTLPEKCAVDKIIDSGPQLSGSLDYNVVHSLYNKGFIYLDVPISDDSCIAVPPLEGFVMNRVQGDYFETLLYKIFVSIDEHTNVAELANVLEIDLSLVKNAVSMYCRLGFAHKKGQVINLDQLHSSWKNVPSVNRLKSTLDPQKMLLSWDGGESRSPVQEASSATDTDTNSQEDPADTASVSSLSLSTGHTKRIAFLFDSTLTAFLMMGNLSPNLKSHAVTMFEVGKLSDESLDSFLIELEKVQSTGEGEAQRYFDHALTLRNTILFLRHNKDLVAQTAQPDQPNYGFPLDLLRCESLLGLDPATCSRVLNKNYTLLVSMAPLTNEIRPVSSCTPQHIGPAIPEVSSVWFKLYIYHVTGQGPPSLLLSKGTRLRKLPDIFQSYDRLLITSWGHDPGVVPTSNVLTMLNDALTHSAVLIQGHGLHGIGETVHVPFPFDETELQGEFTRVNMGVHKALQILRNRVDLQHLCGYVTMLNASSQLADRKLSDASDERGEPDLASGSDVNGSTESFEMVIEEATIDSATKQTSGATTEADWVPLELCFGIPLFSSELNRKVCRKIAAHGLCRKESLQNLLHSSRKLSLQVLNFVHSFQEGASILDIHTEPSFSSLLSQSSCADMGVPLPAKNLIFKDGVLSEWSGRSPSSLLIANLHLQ
UniProt Q96IG2: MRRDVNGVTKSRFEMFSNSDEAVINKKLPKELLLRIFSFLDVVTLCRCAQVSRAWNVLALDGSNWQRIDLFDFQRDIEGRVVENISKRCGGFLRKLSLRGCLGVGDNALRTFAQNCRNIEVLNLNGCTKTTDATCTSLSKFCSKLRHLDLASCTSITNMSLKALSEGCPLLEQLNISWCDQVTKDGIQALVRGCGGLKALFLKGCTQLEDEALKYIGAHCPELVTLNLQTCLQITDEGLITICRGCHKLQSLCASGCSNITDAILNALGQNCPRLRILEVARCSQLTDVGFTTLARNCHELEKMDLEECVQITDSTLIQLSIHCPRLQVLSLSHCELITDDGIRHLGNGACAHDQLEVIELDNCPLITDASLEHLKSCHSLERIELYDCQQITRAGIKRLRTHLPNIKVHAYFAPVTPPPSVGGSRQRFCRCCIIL
UniProt O15360: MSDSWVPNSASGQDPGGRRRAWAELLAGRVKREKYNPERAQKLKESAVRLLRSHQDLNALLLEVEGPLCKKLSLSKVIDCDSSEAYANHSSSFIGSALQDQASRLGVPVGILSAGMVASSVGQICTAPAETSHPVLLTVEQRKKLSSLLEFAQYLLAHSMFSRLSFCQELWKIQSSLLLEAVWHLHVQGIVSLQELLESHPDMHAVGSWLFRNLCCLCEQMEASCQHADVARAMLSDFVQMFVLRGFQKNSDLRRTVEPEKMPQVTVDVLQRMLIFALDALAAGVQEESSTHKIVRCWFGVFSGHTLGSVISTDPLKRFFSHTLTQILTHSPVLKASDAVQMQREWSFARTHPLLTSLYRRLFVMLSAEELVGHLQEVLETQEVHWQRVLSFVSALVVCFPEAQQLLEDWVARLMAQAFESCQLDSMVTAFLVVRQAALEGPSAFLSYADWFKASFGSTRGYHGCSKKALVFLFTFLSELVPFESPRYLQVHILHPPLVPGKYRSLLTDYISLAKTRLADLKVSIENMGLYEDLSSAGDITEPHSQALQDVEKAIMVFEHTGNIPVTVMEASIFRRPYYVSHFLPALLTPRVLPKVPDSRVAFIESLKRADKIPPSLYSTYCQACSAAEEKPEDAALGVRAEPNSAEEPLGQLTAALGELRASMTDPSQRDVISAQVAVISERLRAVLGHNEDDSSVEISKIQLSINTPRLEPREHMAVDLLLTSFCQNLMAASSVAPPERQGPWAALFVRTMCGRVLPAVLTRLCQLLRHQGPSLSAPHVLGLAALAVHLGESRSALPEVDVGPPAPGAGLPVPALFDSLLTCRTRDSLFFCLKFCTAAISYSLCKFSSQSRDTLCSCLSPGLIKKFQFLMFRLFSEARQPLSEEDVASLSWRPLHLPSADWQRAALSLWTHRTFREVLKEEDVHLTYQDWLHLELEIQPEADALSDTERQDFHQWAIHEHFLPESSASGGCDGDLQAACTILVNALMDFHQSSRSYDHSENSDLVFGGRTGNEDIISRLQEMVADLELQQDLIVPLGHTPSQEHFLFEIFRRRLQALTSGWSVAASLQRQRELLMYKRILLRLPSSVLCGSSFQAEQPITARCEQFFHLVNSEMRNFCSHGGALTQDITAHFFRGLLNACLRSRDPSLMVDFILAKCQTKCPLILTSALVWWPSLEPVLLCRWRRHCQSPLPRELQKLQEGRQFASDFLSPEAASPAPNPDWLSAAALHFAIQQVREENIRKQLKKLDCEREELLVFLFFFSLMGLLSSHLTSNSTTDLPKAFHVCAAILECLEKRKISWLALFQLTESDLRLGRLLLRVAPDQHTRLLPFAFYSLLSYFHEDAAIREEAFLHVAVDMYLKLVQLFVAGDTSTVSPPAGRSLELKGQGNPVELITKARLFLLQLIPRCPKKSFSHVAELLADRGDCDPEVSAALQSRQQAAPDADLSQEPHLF
UniProt Q8NFZ0: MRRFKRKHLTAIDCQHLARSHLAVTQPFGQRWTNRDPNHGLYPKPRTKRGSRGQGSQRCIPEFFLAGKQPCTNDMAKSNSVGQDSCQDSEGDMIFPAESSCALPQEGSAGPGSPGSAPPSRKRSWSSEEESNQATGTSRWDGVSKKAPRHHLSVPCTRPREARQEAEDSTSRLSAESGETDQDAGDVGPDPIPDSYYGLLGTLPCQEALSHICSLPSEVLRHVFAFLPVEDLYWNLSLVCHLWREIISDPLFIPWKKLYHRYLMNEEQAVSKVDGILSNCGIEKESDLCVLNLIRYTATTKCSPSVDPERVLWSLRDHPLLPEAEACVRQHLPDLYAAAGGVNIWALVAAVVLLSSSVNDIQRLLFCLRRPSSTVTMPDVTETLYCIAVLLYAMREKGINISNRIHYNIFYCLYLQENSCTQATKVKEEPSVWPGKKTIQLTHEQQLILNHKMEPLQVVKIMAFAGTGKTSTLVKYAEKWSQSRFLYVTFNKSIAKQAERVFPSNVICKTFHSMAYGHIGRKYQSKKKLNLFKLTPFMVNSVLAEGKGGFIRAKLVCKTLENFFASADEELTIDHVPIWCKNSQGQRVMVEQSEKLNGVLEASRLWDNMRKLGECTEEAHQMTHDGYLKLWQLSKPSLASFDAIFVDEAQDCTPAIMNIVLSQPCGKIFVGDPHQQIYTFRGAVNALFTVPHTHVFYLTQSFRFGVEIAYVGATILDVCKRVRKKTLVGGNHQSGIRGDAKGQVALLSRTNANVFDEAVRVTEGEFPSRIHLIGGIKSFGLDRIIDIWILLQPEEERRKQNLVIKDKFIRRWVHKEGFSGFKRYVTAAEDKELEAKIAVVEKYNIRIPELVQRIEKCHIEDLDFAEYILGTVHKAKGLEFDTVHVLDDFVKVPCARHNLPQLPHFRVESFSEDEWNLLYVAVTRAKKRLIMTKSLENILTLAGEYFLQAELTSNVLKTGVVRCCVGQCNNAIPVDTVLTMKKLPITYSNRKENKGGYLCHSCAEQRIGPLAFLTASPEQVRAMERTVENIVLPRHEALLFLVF
UniProt Q9UK61: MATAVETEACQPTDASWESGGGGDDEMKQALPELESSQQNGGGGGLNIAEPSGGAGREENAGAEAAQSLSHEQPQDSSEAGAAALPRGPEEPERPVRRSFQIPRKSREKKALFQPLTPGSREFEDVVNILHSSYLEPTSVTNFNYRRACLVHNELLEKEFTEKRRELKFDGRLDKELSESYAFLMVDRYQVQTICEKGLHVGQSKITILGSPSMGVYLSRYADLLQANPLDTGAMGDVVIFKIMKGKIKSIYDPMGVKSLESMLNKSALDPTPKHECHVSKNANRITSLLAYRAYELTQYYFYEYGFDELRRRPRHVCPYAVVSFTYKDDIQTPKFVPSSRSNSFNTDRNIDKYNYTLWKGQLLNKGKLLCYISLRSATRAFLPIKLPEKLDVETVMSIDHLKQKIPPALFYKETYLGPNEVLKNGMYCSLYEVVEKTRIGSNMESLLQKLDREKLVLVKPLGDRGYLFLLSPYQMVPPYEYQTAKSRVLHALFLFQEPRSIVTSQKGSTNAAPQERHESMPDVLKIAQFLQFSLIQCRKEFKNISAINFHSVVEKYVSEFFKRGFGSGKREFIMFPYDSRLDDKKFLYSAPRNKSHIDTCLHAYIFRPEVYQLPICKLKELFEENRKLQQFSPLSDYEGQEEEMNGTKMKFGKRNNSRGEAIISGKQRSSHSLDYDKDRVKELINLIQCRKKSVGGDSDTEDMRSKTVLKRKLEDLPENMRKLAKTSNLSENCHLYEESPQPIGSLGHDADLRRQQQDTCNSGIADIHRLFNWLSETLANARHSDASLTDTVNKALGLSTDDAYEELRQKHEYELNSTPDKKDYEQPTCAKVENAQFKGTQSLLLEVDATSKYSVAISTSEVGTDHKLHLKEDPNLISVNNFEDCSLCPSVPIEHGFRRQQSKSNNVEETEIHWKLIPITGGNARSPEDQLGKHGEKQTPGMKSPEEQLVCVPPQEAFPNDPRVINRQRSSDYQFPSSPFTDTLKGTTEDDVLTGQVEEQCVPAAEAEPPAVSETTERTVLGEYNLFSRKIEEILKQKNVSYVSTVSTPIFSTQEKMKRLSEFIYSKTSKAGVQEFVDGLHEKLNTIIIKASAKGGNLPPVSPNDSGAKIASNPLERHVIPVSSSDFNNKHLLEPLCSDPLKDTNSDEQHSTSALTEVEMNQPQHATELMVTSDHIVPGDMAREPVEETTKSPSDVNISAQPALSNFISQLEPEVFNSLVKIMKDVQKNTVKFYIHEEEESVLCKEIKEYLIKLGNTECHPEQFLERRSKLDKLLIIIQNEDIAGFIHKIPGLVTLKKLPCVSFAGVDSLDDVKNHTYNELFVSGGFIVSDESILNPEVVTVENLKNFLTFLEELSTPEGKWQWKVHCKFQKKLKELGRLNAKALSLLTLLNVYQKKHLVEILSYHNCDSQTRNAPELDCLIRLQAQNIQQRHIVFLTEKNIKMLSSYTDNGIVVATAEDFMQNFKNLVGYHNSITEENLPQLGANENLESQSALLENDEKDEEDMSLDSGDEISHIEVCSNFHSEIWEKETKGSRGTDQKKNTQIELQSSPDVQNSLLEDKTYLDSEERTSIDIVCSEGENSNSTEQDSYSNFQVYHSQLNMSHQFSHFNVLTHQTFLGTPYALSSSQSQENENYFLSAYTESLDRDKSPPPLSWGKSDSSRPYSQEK
UniProt Q96ME1: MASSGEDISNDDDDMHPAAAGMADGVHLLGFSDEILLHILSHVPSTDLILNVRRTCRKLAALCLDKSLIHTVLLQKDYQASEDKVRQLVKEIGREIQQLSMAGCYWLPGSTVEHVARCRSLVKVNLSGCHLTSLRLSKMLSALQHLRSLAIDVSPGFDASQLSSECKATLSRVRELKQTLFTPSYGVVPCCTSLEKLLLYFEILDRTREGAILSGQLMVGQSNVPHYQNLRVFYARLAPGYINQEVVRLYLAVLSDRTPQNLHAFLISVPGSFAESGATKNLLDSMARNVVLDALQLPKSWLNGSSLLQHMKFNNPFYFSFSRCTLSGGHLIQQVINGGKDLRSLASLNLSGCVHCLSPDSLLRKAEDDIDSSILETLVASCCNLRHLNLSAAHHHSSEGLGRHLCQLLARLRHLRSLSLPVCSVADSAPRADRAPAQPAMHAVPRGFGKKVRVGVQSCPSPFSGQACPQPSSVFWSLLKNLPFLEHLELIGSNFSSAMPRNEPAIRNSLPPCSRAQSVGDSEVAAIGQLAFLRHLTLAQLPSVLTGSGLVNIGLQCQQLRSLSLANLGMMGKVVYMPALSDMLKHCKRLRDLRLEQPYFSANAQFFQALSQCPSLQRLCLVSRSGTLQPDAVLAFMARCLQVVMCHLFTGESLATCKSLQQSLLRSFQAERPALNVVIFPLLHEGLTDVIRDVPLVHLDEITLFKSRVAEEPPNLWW

Compound: CC1Cc2ccccc2N1C(=O)C1CCCN(C1)C(=O)CCl (mixture of isomers) [TRIM25 ligand 11 (diastereomer mixture)]
Assay: probe-labelled cysteine peptide fold change vs DMSO (competition) (log2 fold change); higher = less target engagement (more negative = stronger competition)
Conditions: THP-1, incubation time: 4 h
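Further: competitive chemoproteomic profiling in live THP-1 cells with an iodoacetamide desthiobiotin (IA-DTB) probe, comparing probe-labelled peptide intensities in compound-treated cells against DMSO-treated controls.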

Target	probe-labelled cysteine peptide fold change (10 µM)	probe-labelled cysteine peptide fold change (50 µM)
FASN_P49327_212_LGMLSPEGTCK (UniProt P49327)	-0.0566	-0.123
FASN_P49327_779_PSCTIIPLMK (UniProt P49327)	0.0237	0.144
FBXO4_Q9UKT5_330_HEWQDEFSHIMAMTDPAFGSSGRPLLVLSCISQGDVK (UniProt Q9UKT5)	0.014	-0.235
FASTKD1_Q53R41_716_MLAEVLGGINCVK (UniProt Q53R41)	-0.0662	0.00748
FECH_P22830_360_ECGVENIR (UniProt P22830)	-0.00363	0.0589
FAM91A1_Q658Y4_479_CESLLGLDPATCSR (UniProt Q658Y4)	-0.0221	0.0589
FCF1_Q9Y324_105_CIPCITDCVMAEIEK (UniProt Q9Y324)	0.0823	0.0322
FAM136A_Q96C01_57_CHVPLAQAQALVTSELEK (UniProt Q96C01)	-0.121	0.0522
FERMT3_Q86UX7_128_ASFSQPLFQAVAAICR (UniProt Q86UX7)	-0.0435	0.138
FASN_P49327_634_CPPGVVPACHNSK (UniProt P49327)	0.28	-0.246
FECH_P22830_196_AIAFTQYPQYSCSTTGSSLNAIYR (UniProt P22830)	0.177	-0.132
FASTKD2_Q9NYY8_546_LHTLDTCLK (UniProt Q9NYY8)	0.142	0.108
FBXL20_Q96IG2_378_SCHSLER (UniProt Q96IG2)	0.154	-0.178
FANCA_O15360_69_SHQDLNALLLEVEGPLCK (UniProt O15360)	-0.121	-0.255
FBH1_Q8NFZ0_857_CHIEDLDFAEYILGTVHK (UniProt Q8NFZ0)	0.0964	-0.126
FAM208A_Q9UK61_601_SHIDTCLHAYIFRPEVYQLPICK (UniProt Q9UK61)	-0.0257	-0.066
FAM76B_Q5HYJ3_60_CAQNVK (UniProt Q5HYJ3)	-0.00343	0.104
FASN_P49327_1127_FCFTPHTEEGCLSER (UniProt P49327)	0.135	0.099
FAM98B_Q52LJ0_295_TACAINK (UniProt Q52LJ0)	0.0196	-0.162
FAM192A_Q9GZU8_187_NQEPSSCK (UniProt Q9GZU8)	-0.0643	-0.0722
FAM193B_Q96PV7_766_VGSCAEAGEGSR (UniProt Q96PV7)	0.0331	-0.0522

Target	probe-labelled cysteine peptide fold change (10 µM)	probe-labelled cysteine peptide fold change (50 µM)
FAM208A_Q9UK61_830_DYEQPTCAK (UniProt Q9UK61)	0.049	-0.181
FASN_P49327_1992_DGLLENQTPEFFQDVCKPK (UniProt P49327)	0.00613	0.00399
FANCD2_Q9BXW9_117_NCLLSCER (UniProt Q9BXW9)	0.0471	0.0974
FAM126A_Q9BYI3_401_ETTGESCK (UniProt Q9BYI3)	-0.207	-0.348
FBXL18_Q96ME1_613_LEQPYFSANAQFFQALSQCPSLQR (UniProt Q96ME1)	0.167	0.0431
FAM208A_Q9UK61_149_ACLVHNELLEK (UniProt Q9UK61)	-0.217	-0.415
FAM206A_Q9NX38_74_SISYQISTNCSR (UniProt Q9NX38)	0.025	-0.0191
FASN_P49327_1558_HAQPTCPGAQLCTVYYASLNFR (UniProt P49327)	-0.0325	-0.235
FBXL15_Q9H469_255_HCHHVAESSLSR (UniProt Q9H469)	-0.146	0.173
FASN_P49327_779_RGLKPSCTIIPLMK (UniProt P49327)	-0.212	-0.239
FERMT1_Q9BQL6_423_GCEVVPDVNVAGR (UniProt Q9BQL6)	-0.029	-0.106
FARSB_Q9NSD9_76_IDVPANRYDLLCLEGLVR (UniProt Q9NSD9)	-0.137	-0.0292
FAM208B_Q5VWN6_186_VIPILSTLNCALLETK (UniProt Q5VWN6)	0.18	0.0319
FANCA_O15360_1120_NFCSHGGALTQDITAHFFR (UniProt O15360)	-0.00684	0.235
FAM234A_Q9H0X4_285_TGAHYILFPCASSLCGCSVK (UniProt Q9H0X4)	0.152	-0.103
FBN2_P35556_941_CELDTACPR (UniProt P35556)	0.213	0.26
FCHSD2_O94868_200_SECNSK (UniProt O94868)	-0.0838	-0.0373
FBXL18_Q96ME1_383_KAEDDIDSSILETLVASCCNLR (UniProt Q96ME1)	-0.222	-0.0106
FBH1_Q8NFZ0_580_TLENFFASADEELTIDHVPIWCK (UniProt Q8NFZ0)	0.0226	0.0256
FANCI_Q9NVI1_156_GVLSGEECK (UniProt Q9NVI1)	0.141	0.0874

Part of the list above in a different format:
Target | probe-labelled cysteine peptide fold change (10 µM) | probe-labelled cysteine peptide fold change (50 µM)
FECH_P22830_360_ECGVENIR (UniProt P22830) | -0.00363 | 0.0589
FAM91A1_Q658Y4_479_CESLLGLDPATCSR (UniProt Q658Y4) | -0.0221 | 0.0589
